Measured values taken from article PMC12284142.
No constants are given. Whether binding was seen depends on the method and setting. Binding seen in cells or lysates may run through a third protein. Some entries that bind do so weakly or less than the wild type. For some assays here: Sequences can lack the tags named with a protein.

T1: Interleukin enhancer-binding factor 3 (ILF3) (human (endogenous in SW620)) (UniProt Q12906)
T1 sequence: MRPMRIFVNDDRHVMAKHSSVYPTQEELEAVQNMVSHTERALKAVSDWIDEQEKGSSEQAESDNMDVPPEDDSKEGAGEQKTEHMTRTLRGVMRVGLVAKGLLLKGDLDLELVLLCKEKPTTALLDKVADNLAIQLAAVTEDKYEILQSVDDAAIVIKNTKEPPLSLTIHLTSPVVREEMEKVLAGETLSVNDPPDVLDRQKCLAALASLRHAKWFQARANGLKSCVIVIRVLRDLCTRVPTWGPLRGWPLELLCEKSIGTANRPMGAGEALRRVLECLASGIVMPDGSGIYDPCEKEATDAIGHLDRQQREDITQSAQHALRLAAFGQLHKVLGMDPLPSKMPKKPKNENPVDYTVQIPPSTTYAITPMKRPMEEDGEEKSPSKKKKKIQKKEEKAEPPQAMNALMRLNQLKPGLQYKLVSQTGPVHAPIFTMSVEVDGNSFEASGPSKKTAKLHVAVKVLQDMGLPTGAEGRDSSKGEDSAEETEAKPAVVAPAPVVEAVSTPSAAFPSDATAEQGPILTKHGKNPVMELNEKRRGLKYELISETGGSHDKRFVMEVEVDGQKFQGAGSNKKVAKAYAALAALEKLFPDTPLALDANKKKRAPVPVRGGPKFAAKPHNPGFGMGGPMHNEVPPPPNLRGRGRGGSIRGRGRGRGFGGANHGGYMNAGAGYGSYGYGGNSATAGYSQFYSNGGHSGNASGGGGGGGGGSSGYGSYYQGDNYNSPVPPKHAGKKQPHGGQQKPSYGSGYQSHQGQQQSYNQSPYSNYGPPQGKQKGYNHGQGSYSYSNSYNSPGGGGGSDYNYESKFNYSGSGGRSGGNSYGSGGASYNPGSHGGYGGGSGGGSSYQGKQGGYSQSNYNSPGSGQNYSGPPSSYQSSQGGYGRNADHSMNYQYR

T2: Myc-tagged ILF3 (UniProt Q12906)
T2 sequence: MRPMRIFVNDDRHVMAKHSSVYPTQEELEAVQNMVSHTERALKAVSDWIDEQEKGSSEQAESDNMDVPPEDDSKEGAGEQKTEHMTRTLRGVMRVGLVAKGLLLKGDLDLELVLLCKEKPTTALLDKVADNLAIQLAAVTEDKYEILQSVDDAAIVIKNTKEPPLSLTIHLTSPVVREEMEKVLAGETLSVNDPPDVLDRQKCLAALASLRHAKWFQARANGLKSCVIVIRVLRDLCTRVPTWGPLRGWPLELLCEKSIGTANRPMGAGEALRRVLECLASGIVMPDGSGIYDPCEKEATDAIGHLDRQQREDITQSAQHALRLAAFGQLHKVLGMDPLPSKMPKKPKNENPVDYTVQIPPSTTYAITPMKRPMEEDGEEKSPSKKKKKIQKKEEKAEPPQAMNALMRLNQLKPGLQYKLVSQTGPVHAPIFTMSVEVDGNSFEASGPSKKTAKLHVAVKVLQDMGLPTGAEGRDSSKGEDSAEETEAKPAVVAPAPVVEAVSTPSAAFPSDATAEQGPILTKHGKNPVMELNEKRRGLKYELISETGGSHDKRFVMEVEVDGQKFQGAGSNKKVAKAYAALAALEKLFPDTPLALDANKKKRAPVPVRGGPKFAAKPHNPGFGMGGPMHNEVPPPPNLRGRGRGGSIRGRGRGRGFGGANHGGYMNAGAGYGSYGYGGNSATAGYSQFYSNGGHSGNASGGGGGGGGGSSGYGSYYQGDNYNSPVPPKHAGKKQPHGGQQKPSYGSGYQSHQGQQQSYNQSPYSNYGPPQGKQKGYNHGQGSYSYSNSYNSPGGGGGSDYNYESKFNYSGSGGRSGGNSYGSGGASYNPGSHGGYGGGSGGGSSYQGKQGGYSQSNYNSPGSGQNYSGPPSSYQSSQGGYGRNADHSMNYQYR


Key:
[1] = target: T1, Interleukin enhancer-binding factor 3 (ILF3) (human (endogenous in SW620)); test: co-IP; SW620 cell lysates (IP lysis buffer), anti-ILF3 or anti-TRIM17 antibody and control IgG overnight at 4 °C, protein A/G magnetic beads, washed with PBS, western blot; also cells treated with TNF-α (40 ng/mL, 24 h)
Myc-tagged ILF3 = target: T2, Myc-tagged ILF3; test: co-IP; HEK293T cells co-transfected with Flag-TRIM17 or control vector and Myc-ILF3 for 48 h, IP and IB; also cells treated with TNF-α (40 ng/mL, 24 h) and MG132 (20 μM, 4 h)

Row | binding [1] | binding (Myc-tagged ILF3) | Binder
1 | binds |  | E3 ligase TRIM17 (protein, UniProt Q9Y577 1-477) MEAVELARKLQEEATCSICLDYFTDPVMTTCGHNFCRACIQLSWEKARGKKGRRKRKGSFPCPECREMSPQRNLLPNRLLTKVAEMAQQHPGLQKQDLCQEHHEPLKLFCQKDQSPICVVCRESREHRLHRVLPAEEAVQGYKLKLEEDMEYLREQITRTGNLQAREEQSLAEWQGKVKERRERIVLEFEKMNLYLVEEEQRLLQALETEEEETASRLRESVACLDRQGHSLELLLLQLEERSTQGPLQMLQDMKEPLSRKNNVSVQCPEVAPPTRPRTVCRVPGQIEVLRGFLEDVVPDATSAYPYLLLYESRQRRYLGSSPEGSGFCSKDRFVAYPCAVGQTAFSSGRHYWEVGMNITGDALWALGVCRDNVSRKDRVPKCPENGFWVVQLSKGTKYLSTFSALTPVMLMEPPSHMGIFLDFEAGEVSFYSVSDGSHLHTYSQATFPGPLQPFFCLGAPKSGQMVISTVTMWVKG
2 |  | binds | Flag-tagged TRIM17 (protein, UniProt Q9Y577 1-477) MEAVELARKLQEEATCSICLDYFTDPVMTTCGHNFCRACIQLSWEKARGKKGRRKRKGSFPCPECREMSPQRNLLPNRLLTKVAEMAQQHPGLQKQDLCQEHHEPLKLFCQKDQSPICVVCRESREHRLHRVLPAEEAVQGYKLKLEEDMEYLREQITRTGNLQAREEQSLAEWQGKVKERRERIVLEFEKMNLYLVEEEQRLLQALETEEEETASRLRESVACLDRQGHSLELLLLQLEERSTQGPLQMLQDMKEPLSRKNNVSVQCPEVAPPTRPRTVCRVPGQIEVLRGFLEDVVPDATSAYPYLLLYESRQRRYLGSSPEGSGFCSKDRFVAYPCAVGQTAFSSGRHYWEVGMNITGDALWALGVCRDNVSRKDRVPKCPENGFWVVQLSKGTKYLSTFSALTPVMLMEPPSHMGIFLDFEAGEVSFYSVSDGSHLHTYSQATFPGPLQPFFCLGAPKSGQMVISTVTMWVKG
